From article PMC1894825
Results are given in words; binding and its absence hold for the method and conditions named.

Molecular target: recombinant Lsr2 (M. tuberculosis, Rv3597c) (M. tuberculosis) (UniProt P9WIP7)
Experiment: pull-down; both purified

With “DNase I (from UniProt P00639 23-282) (enzyme)” the binding was “no binding (tested: 5 ug DNase I on 1 ug Lsr2)”.
